Measurements as given in PubChem BioAssay AID504834 (National Center for Advancing Translational Sciences (NCATS), 2011).
The whole screen tested about 320,000 compounds, of which about 22,000 (6.9%) were called active. The shares of active, inactive and inconclusive entries below differ from those in the screen. Calls come from the whole dose curve; as a rule, active = well fitted inhibition curve with a large enough effect; inconclusive = small, poorly fitted or top-dose-only effect, or another doubt; inactive = no such curve, though single readings can be large or run the other way. Potencies of inconclusive entries are doubtful fits and often do not repeat.

test: Primary qHTS for delayed death inhibitors of the malarial parasite plastid, 96 hour incubation; conditions: P. falciparum luciferase reporter growth; series mostly up to 28.7 µM
Outline: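 Parasite growth measured via integrated firefly luciferase reporter in P. falciparum. Infected erythrocytes at 2% hematocrit, 0.05% parasitemia final were treated 96 hours at 37 C under 5% CO2, and luminescence was read.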
Potency is the fitted concentration of half-maximal effect.

| Compound | Potency |
| --- | --- |
| CC1CC(C)CN(C(=O)COc2ccc([N+](=O)[O-])cc2Cl)C1 (stereo unspecified) | inconclusive: 0.0029 µM [inhibitor, full curve, poor fit] |
| O=c1[nH]c(C2CCN(S(=O)(=O)c3cccc(C(F)(F)F)c3)CC2)nc2c1nnn2Cc1cccc(F)c1 | inconclusive: 0.738 µM [inhibitor, full curve, poor fit] |
| CN1CCC(N(C)CC(C)(C)NS(=O)(=O)c2ccccc2)CC1 | inactive |
| CC(Oc1cc2oc(=O)cc(-c3ccccc3)c2cc1Cl)C(=O)NCC1CCC(C(=O)O)CC1 (stereo unspecified) | inconclusive: 1.31 µM [inhibitor, single point] |
| CC(C)(C)NC(=O)CSc1nnc(-c2c[nH]c3ccccc23)o1 | inconclusive: 11.7 µM [inhibitor, single point] |
| Cc1ccc(C)c(NC(=O)CSc2nc(C)cc(C)c2C#N)c1 | inconclusive: 18.5 µM [inhibitor, single point] |
| CC1(C)Cc2c(sc3ncnc(NNC(=S)NCc4ccccc4)c23)CO1 | inconclusive: 10.4 µM [inhibitor, single point] |
| COc1ccc(C(CNC(=O)COc2ccccc2C)N2CCCCC2)cc1 (stereo unspecified) | inconclusive: 6.57 µM [inhibitor, partial curve, poor fit] |
| COC(=O)c1ccccc1NC(=O)CSc1nnc(-c2ccoc2C)n1C | inconclusive: 18.5 µM [inhibitor, single point] |
| CN(C)c1ccc(S(=O)(=O)N2CCCCC2)cc1NC(=O)CCNC(=O)c1ccco1 | inconclusive: 10.4 µM [inhibitor, partial curve] |
| CCOc1cc(Br)c(COc2ccc(C)nc2[N+](=O)[O-])cc1OCC | inconclusive: 9.28 µM [inhibitor, single point] |
| COc1cccc(CC(=O)N2CCN(c3ccccc3[N+](=O)[O-])CC2)c1 | inconclusive: 18.5 µM [inhibitor, single point] |
| Cc1ccc(NC2CCCCC2NS(=O)(=O)c2ccccc2)c(C)c1 (stereo unspecified) | inconclusive: 18.5 µM [inhibitor, single point] |
| O=C(CCCn1c(=S)[nH]c2ccccc2c1=O)NC1CCCCC1 | inconclusive: 10.4 µM [inhibitor, single point] |
| CCN1CCN(CCCCSc2ccccc2)CC1 | inconclusive: 10.4 µM [inhibitor, single point] |
| Nc1nonc1C(=O)N/N=C/c1ccc(-c2ccc(Cl)c(C(=O)O)c2)o1 | inconclusive: 11.7 µM [inhibitor, partial curve] |
| CC(C)NS(=O)(=O)c1ccc(CCC(=O)Nc2cc(Cl)ccc2Oc2ccccc2)cc1 | inconclusive: 6.57 µM [inhibitor, partial curve, poor fit] |
| C=CCCC(=O)Nc1nc(C)c(-c2csc(Nc3cc(Cl)ccc3OC)n2)s1 | inconclusive: 7.38 µM [inhibitor, partial curve, poor fit] |
| C=CCn1c(Sc2ncc([N+](=O)[O-])s2)n[nH]c1=O | active: 10.4 µM |
| COc1cc([N+](=O)[O-])ccc1NC(=O)Cc1ccc(C)cc1 | inconclusive: 13.1 µM [inhibitor, single point] |
| CC(=O)N1CCC(Nc2ccc(C)cc2)CC1 | inconclusive: 18.5 µM [inhibitor, single point] |
| COC(=O)c1cn(C(=O)c2ccc(C)cc2)c2ccccc12 | inconclusive: 18.5 µM [inhibitor, single point] |

Entries shown so far that contain an aryl methoxy group (four):

| Compound | Potency |
| --- | --- |
| COc1ccc(C(CNC(=O)COc2ccccc2C)N2CCCCC2)cc1 (stereo unspecified) | inconclusive: 6.57 µM [inhibitor, partial curve, poor fit] |
| COc1cccc(CC(=O)N2CCN(c3ccccc3[N+](=O)[O-])CC2)c1 | inconclusive: 18.5 µM [inhibitor, single point] |
| C=CCCC(=O)Nc1nc(C)c(-c2csc(Nc3cc(Cl)ccc3OC)n2)s1 | inconclusive: 7.38 µM [inhibitor, partial curve, poor fit] |
| COc1cc([N+](=O)[O-])ccc1NC(=O)Cc1ccc(C)cc1 | inconclusive: 13.1 µM [inhibitor, single point] |

Carrying on:

| Compound | Potency |
| --- | --- |
| COc1cc2c(cc1OC)C(=S)NC1(CCCC1)C2 | inactive |
| CN1C(=O)C2(OCC(COc3ccc(Cl)cc3)O2)c2ccccc21 (stereo unspecified) | inactive |
| C[C@H](NC(N)=O)C(=O)Nc1ccc(N2CCOCC2)c(S(=O)(=O)Nc2ccc(Cl)cc2)c1 | inconclusive: 13.1 µM [inhibitor, single point] |
| CCC(=O)NCCCCCCNC(=O)CC | inactive |
| Cc1cccn2c(=O)nc(SCC(=O)N3CCC(Cc4ccccc4)CC3)nc12 | inconclusive: 14.7 µM [inhibitor, partial curve, poor fit] |
| CCN(C(=O)Cc1ccc(Br)cc1)C1CCCCC1 | inactive |
| Cc1ccc(CSc2nnc(C(F)(F)F)n2Cc2ccc(F)cc2)cc1 | inactive |
| COc1ccc([N+](=O)[O-])c(S(=O)(=O)c2ccccc2)n1 | inconclusive: 18.5 µM [inhibitor, single point] |
| O=C(C1CN(S(=O)(=O)c2ccccc2)CCN1S(=O)(=O)c1ccccc1)N1CCCCCC1 (stereo unspecified) | inconclusive: 10.4 µM [inhibitor, single point] |
| CCc1ccccc1OCC(=O)OCC(=O)Nc1cc(C)on1 | inconclusive: 0.117 µM [inhibitor, full curve] |
| CCOC(=O)c1c(C)[nH]c(C)c1S(=O)(=O)N(C)CC(=O)Nc1ccccc1 | inconclusive: 1.04 µM [inhibitor, partial curve, poor fit] |
| O=C(CCNC(=O)c1ccc([N+](=O)[O-])cc1)Nc1ccccc1N1CCCCC1 | inconclusive: 20.8 µM [inhibitor, single point] |
| CCN(CC)CCOC(=O)c1ccc(N/C=C(/C#N)c2nc(-c3ccc(OC)c(OC)c3)cs2)cc1 | inconclusive: 0.522 µM [inhibitor, full curve, poor fit] |
| Cc1ccc(CC(=O)NC2CCSC2=O)cc1 (stereo unspecified) | inactive |
| Cc1ccc(/C(N)=N/OC(=O)/C=C/c2ccccc2)cc1 | inactive |
| COC(=O)c1ccc2c(=O)n(CC3CCCO3)c(SCC(=O)Nc3ccccc3Cl)nc2c1 (stereo unspecified) | active: 10.4 µM |
| Cc1nn(C)c2ncc(C(=O)c3cc(F)ccc3O)cc12 | active: 10.4 µM |
| CC(=O)c1cc(CN2CCN(CCc3ccccc3)C(CCO)C2)cs1 (stereo unspecified) | inconclusive: 18.5 µM [inhibitor, single point] |
| COc1ccc(C(=O)Nc2nc(CC(=O)NCCc3cccc(OC)c3)cs2)cc1 | inconclusive: 13.1 µM [inhibitor, single point] |
| Cc1ccc(Cl)cc1NC(=O)COC(=O)c1ccc(N2CCCC2)c([N+](=O)[O-])c1 | inconclusive: 20.8 µM [inhibitor, partial curve, poor fit] |
| COc1cc(/C=N/NC(=O)NC2CCCCC2)ccc1O | inactive |
| Cc1ccccc1NS(=O)(=O)c1ccc2c3c(cccc13)C(=O)N2C | inconclusive: 10.4 µM [inhibitor, partial curve, poor fit] |

| Compound | Potency |
| --- | --- |
| O=C(Nc1ccc(-c2nc3ccccc3[nH]2)cc1)c1ccco1 | inactive |
| CCN(CC)S(=O)(=O)c1ccc(N2CCOCC2)c(NS(=O)(=O)c2ccc(C)cc2)c1 | active: 5.86 µM |
| Cc1ccc([N+](=O)[O-])c(OCCn2cnc3ccccc32)c1 | inconclusive: 4.15 µM [inhibitor, single point] |
| Cc1ccc2c(c1)-c1ncc(C(=O)c3cc(Br)ccc3O)cc1CO2 | inconclusive: 0.586 µM [inhibitor, full curve, poor fit] |
| CC(C)CN(CC(C)C)CC(O)CN(c1ccccc1)S(=O)(=O)c1ccccc1[N+](=O)[O-] (stereo unspecified) | inconclusive: 16.5 µM [inhibitor, single point] |
| O=C1C2CCCN2C(=S)N1c1cc(Cl)ccc1Cl (stereo unspecified) | inconclusive: 18.5 µM [inhibitor, single point] |
| CN1CC(C#N)C2(O)c3ccccc3CCC2C1 (stereo unspecified) | inconclusive: 11.7 µM [inhibitor, single point] |
| Cc1cc(Nc2ccccc2O)c2ccccc2n1 | inactive |
| O=C(Cn1ccc([N+](=O)[O-])n1)Nc1nc2ccccc2s1 | inconclusive: 11.7 µM [inhibitor, single point] |
| COc1ccc(C2CCCCCN2Cc2nc3ccccc3c(=O)n2CC(N)=O)cc1 (stereo unspecified) | inconclusive: 18.5 µM [inhibitor, single point] |
| c1ccc(-c2ccccc2OCCOCCN2CCOCC2)cc1 | inconclusive: 18.5 µM [inhibitor, single point] |
| COc1ccccc1N1CCN(C(=O)c2ccncc2)CC1 | inconclusive: 0.586 µM [inhibitor, full curve] |
| CCCCn1c(SCC(=O)N2CCCCC2C)nc2cc(S(N)(=O)=O)ccc21 (stereo unspecified) | inconclusive: 10.4 µM [inhibitor, single point] |
| CC1(C)CC2CC(C)(CN2S(=O)(=O)c2ccc(C(=O)Nc3ccc(Cl)c(S(=O)(=O)N4CCOCC4)c3)cc2)C1 (stereo unspecified) | inconclusive: 4.15 µM [inhibitor, partial curve, poor fit] |
| CC(=O)c1sc(N/N=C\c2ccc(N(C)C)cc2)nc1C | inconclusive: 18.5 µM [inhibitor, single point] |
| COCCN(CCOC)Cc1c(O)ccc2c1O/C(=C\c1ccc(C)o1)C2=O | inconclusive: 8.28 µM [inhibitor, partial curve] |
| CCOCC(=O)Nc1nc2ccccc2s1 | active: 14.7 µM |
| CCOC(=O)c1c(-c2ccc(OC)cc2)oc2cc(Br)c(O)cc12 | inconclusive: 3.7 µM [inhibitor, partial curve] |
| CCOC(=O)c1nnn(-c2nonc2N)c1-c1ccc(OCC)cc1 | inconclusive: 1.04 µM [inhibitor, partial curve] |
| Oc1ccccc1OCCOc1ccccc1OCCOc1ccccc1O | inconclusive: 18.5 µM [inhibitor, single point] |
| CCO[C@@H]1OC(C(=O)N2CCN(C)CC2)=C[C@H](C2CCCCC2)[C@H]1CCCO | inactive |
| O=C(CSc1nnc(CNC(=O)c2ccccc2)o1)NCc1ccc2c(c1)OCO2 | inconclusive: 0.117 µM [inhibitor, full curve, poor fit] |
